Experimental data reported in PMC7347577.
These are yes or no findings as the source states them, for the method shown. In cells and extracts the contact can be indirect. A yes stands for co-enrichment or nearness to the bait. Other partners may have been found.

Chains of the proteins cited; added tags and fusions are not shown.
UniProt P10126: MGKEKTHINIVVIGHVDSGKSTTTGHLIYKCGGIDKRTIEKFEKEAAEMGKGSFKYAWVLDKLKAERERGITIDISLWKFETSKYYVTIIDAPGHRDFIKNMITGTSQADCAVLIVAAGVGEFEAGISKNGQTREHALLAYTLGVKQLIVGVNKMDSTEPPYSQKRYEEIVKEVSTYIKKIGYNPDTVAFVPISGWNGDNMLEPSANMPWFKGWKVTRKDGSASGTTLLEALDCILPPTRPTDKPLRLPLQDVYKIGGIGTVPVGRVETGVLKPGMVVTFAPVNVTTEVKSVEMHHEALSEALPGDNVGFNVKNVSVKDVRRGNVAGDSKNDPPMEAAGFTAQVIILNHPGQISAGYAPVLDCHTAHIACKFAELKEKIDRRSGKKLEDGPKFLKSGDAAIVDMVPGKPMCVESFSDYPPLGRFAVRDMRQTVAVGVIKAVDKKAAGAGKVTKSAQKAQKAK
UniProt P42227: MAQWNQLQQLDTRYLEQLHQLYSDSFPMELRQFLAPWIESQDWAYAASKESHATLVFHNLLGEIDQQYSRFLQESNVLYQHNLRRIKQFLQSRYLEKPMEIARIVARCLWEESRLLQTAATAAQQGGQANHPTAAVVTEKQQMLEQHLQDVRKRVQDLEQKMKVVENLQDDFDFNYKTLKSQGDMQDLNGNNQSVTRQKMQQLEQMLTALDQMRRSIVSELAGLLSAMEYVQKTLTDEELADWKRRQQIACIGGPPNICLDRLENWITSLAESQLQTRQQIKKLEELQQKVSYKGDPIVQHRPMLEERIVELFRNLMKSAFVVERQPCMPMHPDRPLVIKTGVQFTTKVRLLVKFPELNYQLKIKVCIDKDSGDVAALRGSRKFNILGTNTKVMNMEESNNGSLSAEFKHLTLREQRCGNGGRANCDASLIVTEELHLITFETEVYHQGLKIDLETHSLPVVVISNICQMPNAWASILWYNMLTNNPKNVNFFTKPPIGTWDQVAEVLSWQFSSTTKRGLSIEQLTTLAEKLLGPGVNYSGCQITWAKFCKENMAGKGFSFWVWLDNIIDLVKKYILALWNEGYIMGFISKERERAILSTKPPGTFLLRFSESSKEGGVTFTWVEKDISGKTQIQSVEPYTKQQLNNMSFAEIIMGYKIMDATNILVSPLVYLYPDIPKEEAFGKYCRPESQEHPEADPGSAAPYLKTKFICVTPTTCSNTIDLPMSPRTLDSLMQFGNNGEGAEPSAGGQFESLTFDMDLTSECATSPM
UniProt P97371: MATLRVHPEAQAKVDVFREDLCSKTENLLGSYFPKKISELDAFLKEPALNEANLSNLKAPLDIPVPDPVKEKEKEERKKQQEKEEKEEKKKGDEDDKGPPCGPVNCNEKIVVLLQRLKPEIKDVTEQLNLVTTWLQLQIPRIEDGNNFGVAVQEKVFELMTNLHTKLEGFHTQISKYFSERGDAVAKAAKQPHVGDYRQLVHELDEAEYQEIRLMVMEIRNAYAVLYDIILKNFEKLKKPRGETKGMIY
UniProt P97372: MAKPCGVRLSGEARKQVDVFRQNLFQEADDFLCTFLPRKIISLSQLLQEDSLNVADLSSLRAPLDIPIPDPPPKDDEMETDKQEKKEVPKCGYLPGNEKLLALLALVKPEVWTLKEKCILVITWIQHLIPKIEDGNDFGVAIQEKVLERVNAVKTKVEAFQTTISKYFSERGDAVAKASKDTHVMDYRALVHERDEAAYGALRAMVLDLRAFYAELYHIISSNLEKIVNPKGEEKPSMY

Biological target: eukaryotic elongation factor 1A1 (eEF1A1), endogenous in mouse sciatic nerve (mouse (endogenous in sciatic nerve)) (UniProt P10126)
Assay: affinity purification with mass spectrometry; IP of eEF1A1 from mouse sciatic nerves at 2dpl compared to unlesioned nerves; beads eluted, SDS-PAGE, in-gel trypsin digestion, LC-MS/MS, MaxQuant

Substance	binding
Stat3, endogenous in mouse sciatic nerve (from UniProt P42227 1-770)	binds
Proteasome activator subunit 1, endogenous in mouse sciatic nerve (from UniProt P97371 1-249)	binds
Proteasome activator subunit 2, endogenous in mouse sciatic nerve (from UniProt P97372 1-239)	binds
